Data on two molecules can be found in patent US8410247B2, “Water-soluble phosphinothiol reagents” (Wisconsin Alumni Research Foundation, priority 2008, dated 2013).

Series [1] can be described thus: Traceless Staudinger ligation in aqueous buffer with azide 15, 13C NMR assay. As to conditions: equimolar reactants.
Series [2] can be described thus: Traceless Staudinger ligation in aqueous buffer with azide 67, quantitative 13C NMR. As to conditions: near pH 8.0; equimolar with azide 67.

As to `CN(C)CCc1ccc(P(CS)c2ccc(CCN(C)C)cc2)cc1` [phosphinothiol 17, bis(p-dimethylaminoethyl) phosphinomethanethiol], the “ligation yield of amide 16” value is recorded as “exceeded 80%” in series [1] (all solutions with pH ≧7.5) and 94% in series [1] (at high pH, 0.40 M sodium phosphate buffer).
`CN(C)Cc1cccc(P(CS)c2cccc(CN(C)C)c2)c1` [phosphinothiol 34, HSCH2P(C6H4-m-CH2NMe2)2.2HCl]: the “ligation yield of amide 68” value in series [2] is given as roughly 70%.
